In the supplement of paper PMC9254222:
Over roughly 1,100 compounds, “Wnt reporter firefly/Renilla luciferase ratio relative to plate median” has its median near 1.1; the highest 2% begin near 1.6. The entries are a selection whose mix differs from that of the whole data set.

Test system: HEK293T (UBE3A T485A transfected, BAR Wnt reporter)
Test: Wnt reporter firefly/Renilla luciferase ratio relative to plate median (fold (linear ratio)); higher = more Wnt/beta-catenin reporter activation
Conditions: 24 h
Method in brief: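 HEK293T cells were seeded at 4500 cells/well in white 384-well plates and grown in DMEM with 10% FBS at 37°C and 5% CO2. The cells were transfected using Fugene 6 with a BAR firefly luciferase Wnt reporter, TK-Renilla and an expression plasmid, and four hours later robots added the chemicals at 0.01–100 uM for 24 h before a Dual-Glo luciferase readout. Wnt activity was taken as the firefly/Renilla ratio and cell health as raw Renilla, each median-centred per plate. Values are averages of four biological replicates.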

SMILES | Wnt reporter firefly/Renilla luciferase ratio (concentration: 0.01 uM) | Wnt reporter firefly/Renilla luciferase ratio (concentration: 0.1 uM) | Wnt reporter firefly/Renilla luciferase ratio (concentration: 1 uM) | Wnt reporter firefly/Renilla luciferase ratio (concentration: 10 uM) | Wnt reporter firefly/Renilla luciferase ratio (concentration: 100 uM)
CNC(=O)Oc1cccc2ccccc12 [Carbaryl] | 0.987 | 1.18 | 1.07 | 0.714 | 0.629
C/C(=N\C#N)N(C)Cc1ccc(Cl)nc1 [Acetamiprid] | 1.26 | 0.96 | 0.904 | 1.08 | 1.18
O=C(O)C1C2CCC(O2)C1C(=O)O (stereo not given) [Endothal] | – | 1.14 | 1.01 | 1.23 | –
O=C(Nc1ccc2[nH]ccc2c1)c1cc2cc(F)ccc2n1Cc1cccc(F)c1 | – | 0.948 | 0.899 | 0.16 | –
CCOP(=S)(OCC)Oc1nc(Cl)c(Cl)cc1Cl [Chlorpyrifos] | – | 1.11 | 1.01 | 0.926 | 1.12
C[C@]12CCC(=O)C=C1CC[C@@H]1[C@@H]2CC[C@]2(C)C(=O)CC[C@@H]12 [4-Androstene-3,17-dione] | – | 1.04 | 1.01 | 1.12 | 0.219
C=CC(=O)OCCCCCC(C)C [Isooctyl acrylate] | – | 1 | 1.13 | 1.08 | 1.03
Cc1c(F)c(F)c(COC(=O)C2C(/C=C(\Cl)C(F)(F)F)C2(C)C)c(F)c1F (stereo not given) [Tefluthrin] | 1.27 | 1.35 | 1.02 | 1.26 | 0.969
CC(C)C1(C)N=C(c2ncccc2C(=O)O)NC1=O (stereo not given) [Imazapyr] | 1.14 | 1.29 | 1.04 | 1.09 | 1.24
ClCCOCCCl [Bis(2-chloroethyl) ether] | – | 1.05 | 0.921 | 1.24 | 1.38
COP(=S)(OC)Oc1ccc([N+](=O)[O-])cc1 [Methyl parathion] | 1.23 | 1.05 | 1.21 | 1.02 | 0.89
O=[N+]([O-])c1ccc(O)c([N+](=O)[O-])c1 [2,4-Dinitrophenol] | – | 1.04 | 1.12 | 0.963 | 0.34
Cc1nc(N(C)C)nc(OC(=O)N(C)C)c1C [Pirimicarb] | 1.19 | 1.15 | 1.14 | 0.828 | 0.882
COP(=O)(OC)O/C(C)=C/C(=O)N(C)C [Dicrotophos] | 1.29 | 1.12 | 1.1 | 0.957 | 1.09
CCc1cccc(C)c1N(C(=O)CCl)C(C)COC (stereo not given) [Metolachlor] | 0.768 | 1.6 | 0.921 | 0.833 | 0.28
CNC(=O)/C=C(\C)OP(=O)(OC)OC [Monocrotophos] | 0.971 | 1.1 | 1.22 | 1.06 | 1.12
[Cl-].[Cl-].[Hg+2] [Mercuric chloride] | – | 1.21 | 1.07 | 1.69 | –
N=C(Nc1ccccc1)Nc1ccccc1 [1,3-Diphenylguanidine] | – | 1.06 | 1.28 | 0.977 | 1.02
Nc1ccc(Oc2ccc(N)cc2)cc1 [4,4'-Oxydianiline] | – | 1.08 | 1.16 | 0.948 | 1.33
CCCN(CC)CC1COC2(CCC(C(C)(C)C)CC2)O1 (stereo not given) [Spiroxamine] | 0.79 | 0.9 | 1.01 | 1.13 | 0.569
Cl[C@H]1[C@H](Cl)[C@@H](Cl)[C@H](Cl)[C@@H](Cl)[C@@H]1Cl [beta-Hexachlorocyclohexane] | – | 1.05 | 0.913 | 1.12 | 1.03

SMILES | Wnt reporter firefly/Renilla luciferase ratio (concentration: 0.01 uM) | Wnt reporter firefly/Renilla luciferase ratio (concentration: 0.1 uM) | Wnt reporter firefly/Renilla luciferase ratio (concentration: 1 uM) | Wnt reporter firefly/Renilla luciferase ratio (concentration: 10 uM) | Wnt reporter firefly/Renilla luciferase ratio (concentration: 100 uM)
Cc1ccccc1COC1CC2(C(C)C)CCC1(C)O2 (stereo not given) [Cinmethylin] | 0.992 | 0.993 | 1.05 | 1.27 | 1.3
Fc1ccc(Oc2ccnc3cc(Cl)cc(Cl)c23)cc1 [Quinoxyfen] | 0.835 | 1.1 | 0.954 | 1.01 | 0.751
CN1CSC(=S)N(C)C1 [Dazomet] | 1.4 | 1.48 | 1.03 | 0.788 | 0.472
CCc1ccc(C(=O)NN(C(=O)c2cc(C)cc(C)c2)C(C)(C)C)cc1 [Tebufenozide] | 1.05 | 1.01 | 1.12 | 1.19 | 0.567
Cc1ccc(O)c(C)c1 [2,4-Dimethylphenol] | – | 0.977 | 0.844 | 1.08 | 1.33
c1ccc(C2CO2)cc1 (stereo not given) [Styrene oxide] | – | – | – | – | 1.71
ClC1=C(Cl)[C@]2(Cl)[C@H]3[C@H]([C@@H]4C=C[C@H]3C4)[C@@]1(Cl)C2(Cl)Cl [Aldrin] | – | 1.2 | 0.895 | 1.15 | 1.43
CCC(C)Nc1c([N+](=O)[O-])cc(C(C)(C)C)cc1[N+](=O)[O-] (stereo not given) [Butralin] | 1.33 | 1.04 | 1.17 | 1.39 | 1.3
CC(C)N1C(=O)c2ccccc2NS1(=O)=O [Bentazone] | 1.46 | 0.947 | 0.964 | 0.949 | 0.329
CC(COc1ccc(Oc2ccccc2)cc1)Oc1ccccn1 (stereo not given) [Pyriproxyfen] | 1.12 | 0.977 | 1.04 | 1.03 | 0.55
ClC1=C(Cl)C2(Cl)C3C4OC4C(Cl)C3C1(Cl)C2(Cl)Cl (stereo not given) [Heptachlor epoxide] | – | 1.18 | 1.23 | 1.06 | 1.5
ClC(Cl)c1ccccc1 [Benzal chloride] | – | 1.18 | 1.06 | 1.22 | 1.46
CON=C(C(=O)OC)c1ccccc1COc1ccccc1C [Kresoxim methyl] | 0.927 | 1.2 | 1.07 | 0.405 | 0.618
O=C(O)CNCP(=O)(O)O [Glyphosate] | – | – | – | – | 1.75
COC(=CC(N)=O)C(C)C(C=Cc1csc(-c2csc(C(C)C=CC=CC(C)C)n2)n1)OC (stereo not given) [Myxothiazol] | 1.41 | 0.921 | 0.539 | 0.492 | –
CCC(C)(C)c1ccc(O)cc1 [4-(2-Methylbutan-2-yl)phenol] | – | 0.958 | 0.879 | 0.94 | 0.901
O=C(Nc1ccccc1)Nc1ccnc(Cl)c1 [Forchlorfenuron] | 1.1 | 1.16 | 0.957 | 0.694 | –
CN(C)C(=O)Nc1ccc(Cl)cc1 [Monuron] | – | 0.888 | 0.901 | 1.09 | 1.04
Cl[C@H]1[C@H](Cl)[C@@H](Cl)[C@@H](Cl)[C@H](Cl)[C@H]1Cl [Lindane] | 1.12 | 1.12 | 1.21 | 1.14 | 1.46
CC(Oc1cccc(Cl)c1)C(=O)O (stereo not given) [Cloprop] | 1.31 | 1.51 | 1.12 | 1.28 | 1.45

Rewritten as labelled records: entries from further up.
ClC1=C(Cl)C2(Cl)C3C4OC4C(Cl)C3C1(Cl)C2(Cl)Cl (stereo not given) [Heptachlor epoxide]
  Wnt reporter firefly/Renilla luciferase ratio (concentration: 0.1 uM): 1.18; Wnt reporter firefly/Renilla luciferase ratio (concentration: 1 uM): 1.23; Wnt reporter firefly/Renilla luciferase ratio (concentration: 10 uM): 1.06; Wnt reporter firefly/Renilla luciferase ratio (concentration: 100 uM): 1.5
CC(Oc1cccc(Cl)c1)C(=O)O (stereo not given) [Cloprop]
  Wnt reporter firefly/Renilla luciferase ratio (concentration: 0.01 uM): 1.31; Wnt reporter firefly/Renilla luciferase ratio (concentration: 0.1 uM): 1.51; Wnt reporter firefly/Renilla luciferase ratio (concentration: 1 uM): 1.12; Wnt reporter firefly/Renilla luciferase ratio (concentration: 10 uM): 1.28; Wnt reporter firefly/Renilla luciferase ratio (concentration: 100 uM): 1.45
